Test results taken from the supplement of paper PMC10849652.
Some of the results follow.

Protein sequences, listed by entry. Tags and fused reporters are not part of them. Lines headed by an entry give the natural chain unless they say otherwise; changes in a name come on top.
UniProt P61006: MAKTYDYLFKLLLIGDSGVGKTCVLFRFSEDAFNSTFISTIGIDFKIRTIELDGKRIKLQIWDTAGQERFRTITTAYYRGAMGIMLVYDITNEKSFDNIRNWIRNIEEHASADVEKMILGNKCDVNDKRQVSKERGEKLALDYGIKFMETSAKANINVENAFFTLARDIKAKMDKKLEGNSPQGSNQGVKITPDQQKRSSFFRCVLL
UniProt Q9BUV8: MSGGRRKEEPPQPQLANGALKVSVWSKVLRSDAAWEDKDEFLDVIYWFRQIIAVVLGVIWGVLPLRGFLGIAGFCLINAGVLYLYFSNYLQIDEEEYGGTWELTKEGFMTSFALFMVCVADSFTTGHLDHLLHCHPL
UniProt Q9NTZ6: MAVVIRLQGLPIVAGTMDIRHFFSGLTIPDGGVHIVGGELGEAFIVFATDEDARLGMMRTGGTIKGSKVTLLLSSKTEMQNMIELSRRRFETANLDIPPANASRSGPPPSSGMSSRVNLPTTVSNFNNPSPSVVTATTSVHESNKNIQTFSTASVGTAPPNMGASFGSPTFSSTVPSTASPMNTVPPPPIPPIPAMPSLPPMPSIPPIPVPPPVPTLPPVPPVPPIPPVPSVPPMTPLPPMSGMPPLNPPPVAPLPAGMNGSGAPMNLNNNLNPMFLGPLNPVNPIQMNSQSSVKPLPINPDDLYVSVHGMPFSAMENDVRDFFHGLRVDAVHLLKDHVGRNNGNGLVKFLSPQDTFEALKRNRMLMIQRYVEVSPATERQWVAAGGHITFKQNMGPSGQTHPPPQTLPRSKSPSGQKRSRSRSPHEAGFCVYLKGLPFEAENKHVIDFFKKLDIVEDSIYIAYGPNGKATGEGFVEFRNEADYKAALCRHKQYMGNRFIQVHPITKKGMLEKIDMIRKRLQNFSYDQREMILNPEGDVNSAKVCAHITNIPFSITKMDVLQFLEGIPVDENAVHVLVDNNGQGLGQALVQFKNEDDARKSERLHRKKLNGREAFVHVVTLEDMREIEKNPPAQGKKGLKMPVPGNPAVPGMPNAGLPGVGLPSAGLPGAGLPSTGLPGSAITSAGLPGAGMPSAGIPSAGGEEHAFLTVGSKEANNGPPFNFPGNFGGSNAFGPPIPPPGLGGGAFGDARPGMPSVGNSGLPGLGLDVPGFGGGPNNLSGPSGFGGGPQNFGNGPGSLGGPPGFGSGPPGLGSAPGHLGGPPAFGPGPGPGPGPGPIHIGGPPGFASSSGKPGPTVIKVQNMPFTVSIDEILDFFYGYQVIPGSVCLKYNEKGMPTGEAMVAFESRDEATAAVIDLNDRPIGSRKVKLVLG
UniProt P51151: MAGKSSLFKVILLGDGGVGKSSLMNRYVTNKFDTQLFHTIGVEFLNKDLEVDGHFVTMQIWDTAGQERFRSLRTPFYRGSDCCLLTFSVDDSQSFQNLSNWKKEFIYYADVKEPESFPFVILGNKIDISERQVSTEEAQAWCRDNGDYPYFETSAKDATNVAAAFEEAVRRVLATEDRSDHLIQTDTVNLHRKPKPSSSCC
UniProt Q92930: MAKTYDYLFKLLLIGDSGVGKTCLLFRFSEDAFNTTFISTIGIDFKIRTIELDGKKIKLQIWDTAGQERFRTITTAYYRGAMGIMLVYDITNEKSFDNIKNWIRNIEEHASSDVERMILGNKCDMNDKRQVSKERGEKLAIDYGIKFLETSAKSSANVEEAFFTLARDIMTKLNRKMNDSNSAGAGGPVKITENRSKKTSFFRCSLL
UniProt Q96I25: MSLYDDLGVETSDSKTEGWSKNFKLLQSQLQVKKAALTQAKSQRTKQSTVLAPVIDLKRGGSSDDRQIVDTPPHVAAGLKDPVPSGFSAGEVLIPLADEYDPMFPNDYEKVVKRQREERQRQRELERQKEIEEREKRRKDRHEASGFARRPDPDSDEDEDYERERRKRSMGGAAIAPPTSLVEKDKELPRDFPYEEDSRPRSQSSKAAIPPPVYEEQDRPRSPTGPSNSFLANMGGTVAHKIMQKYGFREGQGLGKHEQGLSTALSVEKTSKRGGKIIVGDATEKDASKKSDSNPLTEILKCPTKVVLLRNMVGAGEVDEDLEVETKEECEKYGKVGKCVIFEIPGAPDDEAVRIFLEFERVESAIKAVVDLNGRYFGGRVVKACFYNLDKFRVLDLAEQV
UniProt Q9ULC3: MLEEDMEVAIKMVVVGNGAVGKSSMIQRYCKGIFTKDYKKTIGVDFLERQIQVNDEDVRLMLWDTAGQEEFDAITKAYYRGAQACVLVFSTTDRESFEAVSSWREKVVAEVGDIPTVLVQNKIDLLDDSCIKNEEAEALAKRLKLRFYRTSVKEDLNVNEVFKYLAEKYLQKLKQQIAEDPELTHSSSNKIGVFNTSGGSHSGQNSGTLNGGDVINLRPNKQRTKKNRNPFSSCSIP
UniProt Q15291, whole entry, looked up: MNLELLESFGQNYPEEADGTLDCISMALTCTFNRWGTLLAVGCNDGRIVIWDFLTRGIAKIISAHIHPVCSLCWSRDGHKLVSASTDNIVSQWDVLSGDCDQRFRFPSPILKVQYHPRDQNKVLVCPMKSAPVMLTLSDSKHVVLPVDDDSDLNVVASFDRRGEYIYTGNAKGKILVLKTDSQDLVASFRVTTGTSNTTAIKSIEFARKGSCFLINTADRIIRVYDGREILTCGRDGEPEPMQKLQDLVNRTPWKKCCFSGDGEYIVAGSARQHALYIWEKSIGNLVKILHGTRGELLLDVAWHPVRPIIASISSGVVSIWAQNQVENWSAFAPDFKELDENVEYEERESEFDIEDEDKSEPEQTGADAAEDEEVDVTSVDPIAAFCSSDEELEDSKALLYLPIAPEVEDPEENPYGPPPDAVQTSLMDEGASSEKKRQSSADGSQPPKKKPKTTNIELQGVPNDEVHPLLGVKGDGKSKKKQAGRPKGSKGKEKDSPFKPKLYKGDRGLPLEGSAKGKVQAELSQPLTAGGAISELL
UniProt Q9H0H5: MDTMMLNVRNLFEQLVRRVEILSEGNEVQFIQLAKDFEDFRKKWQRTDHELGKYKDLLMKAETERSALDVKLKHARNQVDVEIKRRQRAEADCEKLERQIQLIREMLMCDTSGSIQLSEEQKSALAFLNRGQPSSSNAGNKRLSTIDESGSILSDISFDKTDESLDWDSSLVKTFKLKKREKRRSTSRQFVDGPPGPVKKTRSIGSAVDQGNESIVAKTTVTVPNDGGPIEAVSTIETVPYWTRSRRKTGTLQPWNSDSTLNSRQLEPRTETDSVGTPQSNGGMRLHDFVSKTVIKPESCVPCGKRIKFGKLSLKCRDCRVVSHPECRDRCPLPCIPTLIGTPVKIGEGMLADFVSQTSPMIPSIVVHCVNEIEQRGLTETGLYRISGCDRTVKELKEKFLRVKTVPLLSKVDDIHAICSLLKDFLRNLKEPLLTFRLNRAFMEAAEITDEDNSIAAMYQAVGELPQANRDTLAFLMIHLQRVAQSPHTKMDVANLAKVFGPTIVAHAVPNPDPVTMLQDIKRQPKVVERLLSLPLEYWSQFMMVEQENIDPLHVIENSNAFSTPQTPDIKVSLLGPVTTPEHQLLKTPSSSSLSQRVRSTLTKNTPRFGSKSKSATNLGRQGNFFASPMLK
UniProt P61224: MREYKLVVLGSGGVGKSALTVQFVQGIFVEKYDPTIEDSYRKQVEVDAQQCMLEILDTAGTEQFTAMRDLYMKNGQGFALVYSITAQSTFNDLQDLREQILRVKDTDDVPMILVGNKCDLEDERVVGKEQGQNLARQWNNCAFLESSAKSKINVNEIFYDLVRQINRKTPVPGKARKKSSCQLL
UniProt Q96QF0: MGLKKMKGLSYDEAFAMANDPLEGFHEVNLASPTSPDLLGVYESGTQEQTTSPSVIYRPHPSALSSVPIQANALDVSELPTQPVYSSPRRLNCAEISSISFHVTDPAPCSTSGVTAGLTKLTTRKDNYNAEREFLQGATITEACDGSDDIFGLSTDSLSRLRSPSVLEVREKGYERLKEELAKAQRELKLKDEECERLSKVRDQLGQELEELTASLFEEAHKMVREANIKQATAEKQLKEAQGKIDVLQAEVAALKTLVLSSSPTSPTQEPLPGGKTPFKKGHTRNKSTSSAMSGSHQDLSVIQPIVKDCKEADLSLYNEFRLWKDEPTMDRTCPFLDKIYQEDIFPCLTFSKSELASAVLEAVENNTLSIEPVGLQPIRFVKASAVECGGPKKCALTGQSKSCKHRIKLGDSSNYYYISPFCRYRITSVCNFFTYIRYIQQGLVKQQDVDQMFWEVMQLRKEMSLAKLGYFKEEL
UniProt P11233: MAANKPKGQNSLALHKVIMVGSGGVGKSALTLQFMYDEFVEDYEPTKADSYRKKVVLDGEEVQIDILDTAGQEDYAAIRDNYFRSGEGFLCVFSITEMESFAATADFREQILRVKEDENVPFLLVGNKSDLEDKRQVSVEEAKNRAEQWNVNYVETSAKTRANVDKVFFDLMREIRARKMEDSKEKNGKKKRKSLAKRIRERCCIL
UniProt P53611: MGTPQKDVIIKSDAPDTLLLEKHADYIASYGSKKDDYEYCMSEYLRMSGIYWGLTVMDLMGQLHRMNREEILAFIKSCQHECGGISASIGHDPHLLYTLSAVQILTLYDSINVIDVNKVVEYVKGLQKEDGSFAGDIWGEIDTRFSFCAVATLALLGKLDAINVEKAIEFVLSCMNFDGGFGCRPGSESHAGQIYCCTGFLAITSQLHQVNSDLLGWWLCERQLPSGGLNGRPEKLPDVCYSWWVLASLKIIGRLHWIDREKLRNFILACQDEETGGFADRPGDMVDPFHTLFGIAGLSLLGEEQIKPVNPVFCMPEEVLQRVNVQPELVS
UniProt Q9NRW1: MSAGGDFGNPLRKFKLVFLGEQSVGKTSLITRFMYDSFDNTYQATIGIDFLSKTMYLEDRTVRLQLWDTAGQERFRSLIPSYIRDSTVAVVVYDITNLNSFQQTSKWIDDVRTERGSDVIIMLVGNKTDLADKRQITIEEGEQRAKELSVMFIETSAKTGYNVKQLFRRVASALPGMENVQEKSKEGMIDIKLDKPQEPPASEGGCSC
UniProt Q9NX57: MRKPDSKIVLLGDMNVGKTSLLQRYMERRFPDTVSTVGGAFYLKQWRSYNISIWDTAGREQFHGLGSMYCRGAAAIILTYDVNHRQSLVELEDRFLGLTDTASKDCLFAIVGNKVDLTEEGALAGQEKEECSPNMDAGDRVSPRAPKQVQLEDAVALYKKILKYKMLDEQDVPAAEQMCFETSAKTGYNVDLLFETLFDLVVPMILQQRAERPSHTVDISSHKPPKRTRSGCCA
UniProt P54727: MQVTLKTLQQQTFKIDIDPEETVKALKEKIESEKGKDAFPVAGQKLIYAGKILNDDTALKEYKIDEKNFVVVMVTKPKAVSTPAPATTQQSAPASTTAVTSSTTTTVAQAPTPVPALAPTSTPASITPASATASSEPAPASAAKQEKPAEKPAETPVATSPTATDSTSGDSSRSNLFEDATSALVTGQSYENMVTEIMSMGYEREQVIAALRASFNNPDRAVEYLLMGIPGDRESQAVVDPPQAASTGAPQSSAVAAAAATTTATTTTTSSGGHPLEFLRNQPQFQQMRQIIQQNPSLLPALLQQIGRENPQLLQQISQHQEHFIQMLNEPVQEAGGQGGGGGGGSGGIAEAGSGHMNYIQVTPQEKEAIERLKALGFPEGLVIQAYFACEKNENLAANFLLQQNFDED
UniProt Q5T160: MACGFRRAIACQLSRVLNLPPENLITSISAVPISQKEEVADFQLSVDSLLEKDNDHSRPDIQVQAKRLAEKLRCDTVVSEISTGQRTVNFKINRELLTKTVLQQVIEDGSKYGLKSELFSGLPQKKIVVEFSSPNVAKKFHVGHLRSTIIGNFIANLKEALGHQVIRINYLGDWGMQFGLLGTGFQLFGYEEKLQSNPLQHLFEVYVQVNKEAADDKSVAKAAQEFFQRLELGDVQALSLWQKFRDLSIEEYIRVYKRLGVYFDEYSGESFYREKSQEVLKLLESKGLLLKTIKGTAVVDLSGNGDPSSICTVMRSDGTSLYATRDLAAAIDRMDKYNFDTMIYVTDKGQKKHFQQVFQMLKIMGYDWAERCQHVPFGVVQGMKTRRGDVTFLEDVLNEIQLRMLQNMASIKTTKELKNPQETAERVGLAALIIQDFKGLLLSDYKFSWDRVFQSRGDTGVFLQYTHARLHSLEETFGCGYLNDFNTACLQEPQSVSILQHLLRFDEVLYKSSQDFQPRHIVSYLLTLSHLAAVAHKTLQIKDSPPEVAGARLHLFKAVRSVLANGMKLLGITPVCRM
UniProt P43487, whole entry, looked up: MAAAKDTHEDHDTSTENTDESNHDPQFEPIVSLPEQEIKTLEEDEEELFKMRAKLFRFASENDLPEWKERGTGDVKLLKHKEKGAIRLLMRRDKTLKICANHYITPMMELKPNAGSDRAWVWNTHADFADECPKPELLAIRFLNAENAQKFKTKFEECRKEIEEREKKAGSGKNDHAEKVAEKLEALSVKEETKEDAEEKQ
UniProt P20338: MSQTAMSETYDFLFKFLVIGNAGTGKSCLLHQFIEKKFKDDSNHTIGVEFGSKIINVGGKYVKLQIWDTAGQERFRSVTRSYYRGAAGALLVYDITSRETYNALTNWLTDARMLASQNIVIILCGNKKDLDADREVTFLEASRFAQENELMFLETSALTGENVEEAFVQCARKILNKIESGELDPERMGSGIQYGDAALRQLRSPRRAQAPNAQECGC

What was measured:
Assay in all cases: log2 fold change, soluble protein after heating vs DMSO (PISA); higher = thermal stabilisation; K562 cells, 10 uM, 30 min; active = over 0.2 and 3.5 SD of the protein, either way, in both replicates (recomputed)
[1] = compound: COC1=CC=C(C=C1)CN2C=CC3=C2C=C(C=C3)C(=O)NO
Method in brief: (§1)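 Values are thermal stability changes relative to control samples and are taken from duplicates. They are stated as log2 fold changes. Before quantification by TMTpro 16plex LC-MS/MS with equalised channel sums, K562 cells at 2×10^6 cells/mL were treated with 10 μM compound for 30 min, heated in aliquots for 3 min across 48°C-58°C, pooled, extracted in PBS with 0.5% NP-40 at 4°C, and centrifuged at 21,000xg for 90 min to give the soluble supernatant.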

filanesib = compound: CON(C)C(=O)N1N=C(c2cc(F)ccc2F)S[C@@]1(CCCN)c1ccccc1 [filanesib]
Method in brief: as §1

zotarolimus = compound: CO[C@H]1C[C@@H]2CC[C@@H](C)[C@@](O)(O2)C(=O)C(=O)N2CCCC[C@H]2C(=O)O[C@H]([C@H](C)C[C@@H]2CC[C@H](n3cnnn3)[C@H](OC)C2)CC(=O)[C@H](C)/C=C(\C)[C@@H](O)[C@@H](OC)C(=O)[C@H](C)C[C@H](C)/C=C/C=C/C=C/1C [zotarolimus]
Method in brief: as §1

idasanutlin = compound: COc1cc(C(=O)O)ccc1NC(=O)[C@@H]1N[C@@H](CC(C)(C)C)[C@](C#N)(c2ccc(Cl)cc2F)[C@H]1c1cccc(Cl)c1F [idasanutlin]
Method in brief: as §1

alisertib = compound: COc1cc(Nc2ncc3c(n2)-c2ccc(Cl)cc2C(c2c(F)cccc2OC)=NC3)ccc1C(=O)O [alisertib]
Method in brief: as §1

[2] = compound: COc1cc2nc(-c3cc(F)ccc3O)nc(N[C@@H]3CNC[C@H]3C(C)(C)O)c2cc1OC
Method in brief: as §1

gefitinib = compound: COc1cc2ncnc(Nc3ccc(F)c(Cl)c3)c2cc1OCCCN1CCOCC1 [gefitinib]
Method in brief: as §1

[3] = compound: COc1cccc2cc(-c3nc([C@H]4CC[C@H](C(=O)O)CC4)n4ncnc(N)c34)[nH]c12
Method in brief: as §1

lapatinib = compound: CS(=O)(=O)CCNCc1ccc(-c2ccc3ncnc(Nc4ccc(OCc5cccc(F)c5)c(Cl)c4)c3c2)o1 [lapatinib]
Method in brief: as §1

pictilisib = compound: CS(=O)(=O)N1CCN(Cc2cc3nc(-c4cccc5[nH]ncc45)nc(N4CCOCC4)c3s2)CC1 [pictilisib]
Method in brief: as §1

Measured: log2 fold change

RAB8A (UniProt P61006)
inactive: [1] 0.027 | filanesib -0.031 | zotarolimus 0.051 | idasanutlin -0.034 | alisertib 0.018 | [2] 0.015 | gefitinib 0.012 | [3] 0.032 | lapatinib -0.021 | pictilisib 0.033

RAB5IF isoform 5 (UniProt Q9BUV8)
inactive: filanesib -0.243 | zotarolimus -0.074 | idasanutlin -0.015 | alisertib -0.081 | [2] -0.021 | gefitinib 0.018 | [3] 0.002 | lapatinib 0.006 | pictilisib 0.006
active: [1] 0.429

RBM12 (UniProt Q9NTZ6)
inactive: [1] 0.112 | filanesib -0.033 | zotarolimus 0.021 | idasanutlin -0.039 | alisertib 0.023 | [2] -0.014 | gefitinib 0.032 | [3] 0.023 | lapatinib -0.012 | pictilisib -0.019

RAB9A (UniProt P51151)
inactive: [1] 0.022 | filanesib -0.074 | zotarolimus 0.024 | idasanutlin -0.026 | alisertib -0.021 | [2] 0.008 | gefitinib 0.015 | [3] 0.067 | lapatinib -0.026 | pictilisib -0.011

RAB8B (UniProt Q92930)
inactive: [1] 0.258 | filanesib -0.076 | zotarolimus 0.045 | idasanutlin -0.017 | alisertib -0.035 | [2] -0.064 | gefitinib 0.021 | [3] -0.076 | lapatinib 0.023 | pictilisib -0.096

RBM17 (UniProt Q96I25)
inactive: [1] 0.026 | filanesib 0.038 | zotarolimus 0.064 | idasanutlin 0.121 | alisertib -0.055 | [2] -0.031 | gefitinib 0.003 | [3] 0.019 | lapatinib 0 | pictilisib -0.276

RAB23 (UniProt Q9ULC3)
inactive: [1] -0.022 | filanesib -0.015 | zotarolimus 0.031 | idasanutlin -0.02 | alisertib 0.137 | [2] 0.084 | gefitinib 0.038 | [3] 0.056 | lapatinib -0.025 | pictilisib 0.028

2 consecutive entries already listed, for reference:
RBM17 (UniProt Q96I25)
inactive: [1] 0.026 | filanesib 0.038 | zotarolimus 0.064 | idasanutlin 0.121 | alisertib -0.055 | [2] -0.031 | gefitinib 0.003 | [3] 0.019 | lapatinib 0 | pictilisib -0.276

RAB23 (UniProt Q9ULC3)
inactive: [1] -0.022 | filanesib -0.015 | zotarolimus 0.031 | idasanutlin -0.02 | alisertib 0.137 | [2] 0.084 | gefitinib 0.038 | [3] 0.056 | lapatinib -0.025 | pictilisib 0.028

Continuation:

RBBP5 (UniProt Q15291)
inactive: [1] 0.032 | filanesib 0.026 | zotarolimus -0.04 | idasanutlin 0.017 | alisertib -0.052 | [2] -0.012 | gefitinib -0.008 | [3] 0.049 | lapatinib -0.002 | pictilisib -0.012

RACGAP1 (UniProt Q9H0H5)
inactive: [1] 0.055 | filanesib 0.027 | zotarolimus -0.009 | idasanutlin 0.218 | alisertib 0.017 | [2] 0.021 | gefitinib 0.109 | [3] -0.023 | lapatinib 0.005 | pictilisib -0.006

RAP1GDS1 isoform 5 (UniProt P52306)
inactive: [1] -0.026 | filanesib -0.019 | zotarolimus 0.022 | idasanutlin -0.023 | alisertib -0.041 | [2] -0.025 | gefitinib 0.066 | [3] -0.072 | lapatinib 0.091 | pictilisib 0.015

RB1CC1 (UniProt Q8TDY2)
inactive: filanesib -0.079 | zotarolimus 0.014 | idasanutlin -0.002 | alisertib -0.112 | [2] 0.182 | gefitinib -0.042 | [3] -0.049 | lapatinib 0.181 | pictilisib 0.083
active: [1] 0.435

RAP1B (UniProt P61224)
inactive: [1] 0.195 | filanesib -0.02 | zotarolimus 0.014 | idasanutlin -0.023 | alisertib -0.003 | [2] -0.048 | gefitinib -0.01 | [3] 0.015 | lapatinib 0.033 | pictilisib 0.014

RB1 (UniProt P06400)
inactive: [1] -0.028 | filanesib -0.08 | zotarolimus 0.011 | idasanutlin 0 | alisertib -0.016 | gefitinib 0.006 | [3] 0.052 | lapatinib 0.025 | pictilisib 0.033
active: [2] -0.325

RAB3IP (UniProt Q96QF0)
inactive: [1] 0 | filanesib 0.021 | zotarolimus 0.128 | idasanutlin 0.073 | alisertib -0.041 | [2] -0.145 | gefitinib 0.033 | [3] -0.131 | lapatinib 0.069 | pictilisib 0.067

RAB8A isoform 2 (UniProt P61006)
inactive: [1] -0.1 | filanesib -0.049 | zotarolimus -0.055 | idasanutlin -0.071 | alisertib -0.023 | [2] 0.014 | gefitinib 0.019 | [3] 0.043 | lapatinib 0.012 | pictilisib 0.049

RAB10 (UniProt P61026)
inactive: [1] -0.049 | filanesib -0.064 | zotarolimus 0.003 | idasanutlin -0.024 | alisertib -0.015 | [2] 0.055 | gefitinib 0.01 | [3] 0.036 | lapatinib -0.01 | pictilisib 0.005

RAPGEF5, A0A590UJR0
inactive: [1] -0.007 | filanesib -0.106 | zotarolimus 0.151 | idasanutlin -0.872 | alisertib -0.045 | [2] 0.185 | gefitinib -0.004 | [3] 0.073 | lapatinib 0.096 | pictilisib 0.215

RALA (UniProt P11233)
active: [1] 0.348
inactive: filanesib -0.025 | zotarolimus 0.035 | idasanutlin -0.019 | alisertib -0.066 | [2] -0.066 | gefitinib 0.004 | [3] 0.053 | lapatinib 0.025 | pictilisib -0.099

RBM33 (UniProt Q96EV2)
inactive: [1] 0.134 | filanesib 0.013 | zotarolimus 0.03 | idasanutlin 0.042 | alisertib -0.031 | [2] -0.078 | gefitinib 0.035 | [3] -0.028 | lapatinib 0.008 | pictilisib -0.044

RABGAP1 (UniProt Q9Y3P9)
inactive: [1] -0.013 | filanesib 0.021 | zotarolimus -0.026 | idasanutlin 0.014 | alisertib 0.003 | [2] -0.003 | gefitinib -0.03 | [3] -0.015 | lapatinib -0.037 | pictilisib 0.027

RABGGTB (UniProt P53611)
inactive: [1] -0.034 | filanesib 0.024 | zotarolimus 0.053 | idasanutlin 0.036 | alisertib -0.052 | [2] 0.008 | gefitinib 0.019 | [3] 0.032 | lapatinib -0.048 | pictilisib 0.083

RAB6B (UniProt Q9NRW1)
inactive: [1] -0.004 | filanesib -0.091 | zotarolimus -0.054 | idasanutlin -0.049 | alisertib -0.057 | [2] 0.093 | gefitinib 0.013 | [3] 0.032 | lapatinib -0.006 | pictilisib 0.044

RAB20 (UniProt Q9NX57)
inactive: [1] -0.095 | filanesib -0.053 | zotarolimus 0.022 | idasanutlin -0.073 | alisertib -0.017 | [2] 0.104 | gefitinib -0.033 | [3] 0.045 | lapatinib -0.005 | pictilisib 0.019

RAD23B (UniProt P54727)
inactive: [1] -0.044 | filanesib -0.011 | zotarolimus 0.023 | idasanutlin -0.006 | alisertib -0.063 | [2] 0.007 | gefitinib 0.004 | [3] 0.062 | lapatinib -0.027 | pictilisib 0.057

RAB3GAP1 (UniProt Q15042)
inactive: [1] 0.007 | filanesib 0.051 | zotarolimus 0.049 | idasanutlin 0.01 | alisertib -0.073 | [2] -0.042 | gefitinib 0.051 | [3] -0.099 | lapatinib -0.001 | pictilisib 0.026

RARS2 (UniProt Q5T160)
inactive: [1] 0.009 | zotarolimus 0.007 | idasanutlin -0.071 | alisertib -0.016 | [2] -0.028 | gefitinib -0.013 | [3] 0.051 | lapatinib 0.051 | pictilisib -0.031
active: filanesib -0.245

RANBP1 (UniProt P43487)
inactive: [1] 0.059 | filanesib -0.025 | zotarolimus 0.03 | idasanutlin 0.003 | alisertib -0.073 | [2] -0.024 | gefitinib 0 | [3] 0.014 | lapatinib -0.002 | pictilisib -0.056

RAB4A (UniProt P20338)
inactive: [1] -0.058 | filanesib -0.033 | zotarolimus -0.033 | idasanutlin -0.02 | alisertib -0.007 | [2] 0.07 | gefitinib -0.014 | [3] 0.017 | lapatinib -0.051 | pictilisib 0.077

RANBP9 (UniProt Q96S59)
inactive: [1] 0.012 | filanesib 0.008 | zotarolimus 0 | idasanutlin -0.029 | alisertib -0.055 | [2] 0.028 | gefitinib 0.086 | [3] -0.025 | lapatinib 0.034 | pictilisib 0.051
